This is one part of the list. Values are raw readings; no control value is given beside them.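 Primary screen: polymyxin B was added at a level permeabilizing Salmonella outer membranes while sparing inner membranes. DMSO wells, both with and without polymyxin B, established maximum growth. Plate-to-plate variation meant each plate was ranked on its own, and the lowest-OD600 compounds were selected as hits.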
System: Salmonella enterica serovar Typhimurium SL1344
Assay: bacterial growth OD600 after 18 h with compound and polymyxin B; higher = more bacterial growth (less inhibition)
Settings: 50 µM, Mueller-Hinton broth

| SMILES | bacterial growth OD600 (polymyxin B 0.75 µg/mL) | bacterial growth OD600 (polymyxin B 1 µg/mL) |
| --- | --- | --- |
| Cn1c(C2CCC2)nc2cc(C(=O)NCc3cccc(-n4cccn4)c3)cc(NC(=O)C3CCCO3)c21 (stereo not given) | 0.839 |  |
| COc1ccc(NC(=O)CCC2CCCN(C(=O)c3cc(OC)ccc3OC)C2)c(C)c1 (stereo not given) |  | 1.04 |
| CN(C)c1ncc2c(n1)CCCC2NC(=O)CCc1cnccn1 (stereo not given) |  | 1.11 |
| CCCc1cc(C(=O)N2CCC3(CC2)c2ccccc2[C@@H](NC(=O)C(C)C)[C@@H]3OCCOC)n(C)n1 | 0.778 |  |
| COc1cccc(CC2=NOC(C(=O)NCc3ccc(C(F)(F)F)cc3F)C2)c1 (stereo not given) | 0.962 |  |
| CCC1C(=O)NCCN1C(=O)c1csc2nc(-c3ccc(F)cc3)cn12 (stereo not given) |  | 1.11 |
| Cc1csc(SCC(=O)NCc2cccnc2Oc2ccccc2)n1 |  | 0.871 |
| Cc1ccc2nc(C)cc(C(=O)N3CCC4(CC3)CC4C(=O)NCC3(c4ccccc4)CCCC3)c2c1 (stereo not given) | 0.762 |  |
| Cc1ccccc1CC(C1CCN(C(=O)c2ccc3[nH]ccc3c2)CC1)N(C)C(=O)Cn1cccn1 (stereo not given) | 0.758 |  |
| O=C(CCc1ccccc1)Nc1ccc(N2CCC(NCc3ccc4ncccc4c3)CC2)cc1 | 0.836 |  |
| CCC1CN(Cc2ccc(OC)cc2OC)Cc2cc(OC)ccc2O1 (stereo not given) | 0.73 |  |
| Cc1nc(CC(=O)N2CCCC(CCC(=O)NCc3ccccc3Cl)C2)cs1 (stereo not given) |  | 1.11 |
| COc1ccc(CCC2CCCN(C(=O)c3cc(C)on3)C2)cc1 (stereo not given) | 0.44 |  |
| O=C(CCC1CCCN(C(=O)c2ccsc2)C1)NC1CC1 (stereo not given) | 0.823 |  |
| CCCS(=O)(=O)NCc1nc(NCCCc2ccccc2)c2ccccc2n1 | 0.795 |  |
| CC(=O)c1cccc(OCc2cc(C(=O)NCC(F)(F)F)n[nH]2)c1 |  | 1.2 |
| Cc1ncc2c(c1CNC(=O)c1ccc3c(c1)OCO3)CCN(C(=O)c1cc(Cl)ccc1F)C2 | 0.656 |  |
| CC(C)(C)C(=O)Nc1ccnn1C1CCN(C(=O)c2ccccc2-c2ncc[nH]2)CC1 |  | 1.06 |
| CC1CCCN(Cc2c(C(=O)N3CCN(C4CCCCC4)CC3)nc3ccccn23)C1 (stereo not given) |  | 1.05 |
| Cc1nn(C)c(Cl)c1CN1CCC(O)(Cc2cc(-c3ccccc3)no2)CC1 | 0.964 |  |

Shown bar-delimited: part of the list above
SMILES | bacterial growth OD600 (polymyxin B 0.75 µg/mL) | bacterial growth OD600 (polymyxin B 1 µg/mL)
CN(C)c1ncc2c(n1)CCCC2NC(=O)CCc1cnccn1 (stereo not given) |  | 1.11
CCCc1cc(C(=O)N2CCC3(CC2)c2ccccc2[C@@H](NC(=O)C(C)C)[C@@H]3OCCOC)n(C)n1 | 0.778 | 

Reference: the supplement of paper PMC12889115
